Values quoted from earlier work as cited in publication PMC4959829 (Biochemical Pharmacology, 2016).

Conditions: cited from earlier work

For `CCCCc1oc2ccccc2c1C(=O)c1cc(I)c(OCCN(CC)CC)c(I)c1` [Amiodarone, amiodarone], which “Plasma clinical concentration range” value is on record?
Its value is 1.6 to 5.9 µM.
